Experiment [1] deals with human 5T4 ectodomain fused to the human IgG1-Fc domain (human) (UniProt Q13641). Description: ELISA with 5T4 ectodomain Fc and human/mouse chimeras. For orientation: In an ELISA, binding on a coated surface is turned into a signal by an enzyme label.
Experiment [2] has the same target. The experiment can be described thus: SPR (BIAcore), immobilized 5T4-Fc. (In general: SPR reads the build-up and loss of mass on a sensor chip optically.)

Protein sequences, listed by entry. Tags and fused reporters are not part of them. Lines headed by an entry give the natural chain unless they say otherwise; changes in a name come on top.
UniProt Q13641: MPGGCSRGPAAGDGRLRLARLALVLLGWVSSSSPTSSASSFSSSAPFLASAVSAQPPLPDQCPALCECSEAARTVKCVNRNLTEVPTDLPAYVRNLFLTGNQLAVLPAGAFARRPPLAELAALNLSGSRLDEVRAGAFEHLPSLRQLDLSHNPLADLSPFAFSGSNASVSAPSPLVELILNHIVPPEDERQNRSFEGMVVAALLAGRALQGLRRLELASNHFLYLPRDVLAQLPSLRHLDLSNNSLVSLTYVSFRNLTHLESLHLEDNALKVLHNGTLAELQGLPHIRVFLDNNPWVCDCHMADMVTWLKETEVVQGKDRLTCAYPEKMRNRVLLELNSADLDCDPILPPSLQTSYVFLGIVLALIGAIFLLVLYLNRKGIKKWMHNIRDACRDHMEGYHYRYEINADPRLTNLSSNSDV

These are yes or no findings as the source states them, for the method shown. Some results given as binding are weak or reduced against the parent protein; the word gives no strength.

B1: A3 (a mouse/human chimeric antibody) (antibody, human IgG1, kappa, V domains shown)
VH: EVQLVESGGGLVQPKGSLKLSCAASGFTFNTYAMNWVRQAPGKGLEWVARIRSKSNNYATYYADSVKDRFTISRDDSQSMLYLQMNNLKTEDTAMYYCVRQWDYDVRAMNYWGQGTLVTVSS
VL: DIVMTQSHIFMSTSVGDRVSITCKASQDVDTAVAWYQQKPGQSPKLLIYWASTRLTGVPDRFTGSGSGTDFTLTISNVQSEDLADYFCQQYSSYPYTFGQGTKLEIKR
With B1, the binding entry in experiment [1] and in experiment [2] was “binds” in each case.

Values taken from US20170319711A1.
